Assay results published in PubChem BioAssay AID252 (DTP/NCI, 2004).
The list does not hold the whole screen: it is rich in T/C values a quarter to a half above the control, in often repeated tests (any T/C) and in doses without a T/C. Further doses and runs are listed elsewhere. T/C: endpoint of the treated group in % of that of the vehicle group. Some doses have a count of surviving animals in place of a T/C: the source holds a T/C of zero for them, seemingly a mark for toxic or unscored doses. Some doses without a T/C left all or most animals alive at the check, yet need not have been tolerated: the source hardly ever lists a survival T/C far under the control, and the zero likely stands for such cases as well. Counts of survivors are from the toxicity check (mostly the fifth day) where no day follows; animals may have died later. Schedule codes are those of the source, read here as Q, the interval in days (D) or hours (H), X, the number of doses. For survival time, the PubChem record calls one and a half times the control and up active, and a quarter to a half above the control has no call in these data; cut-offs in other NCI protocols can differ. Some entries hold several experiments; the results are listed from low to high. Some schedule codes hold Z or #, which are not explained here. Some T/C values carry the count of animals alive at the toxicity check (mostly the fifth day); without a count, all were alive then.

Test system: BDF1 mice, intracerebral L1210 leukemia, survival T/C
Experiment: NCI In Vivo Anticancer Drug Screen. Data for tumor model L1210 Leukemia (intracerebral) in B6D2F1 (BDF1) mice
Conditions: higher T/C = longer survival
In short: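 Antitumour effect is judged in mice with transplanted tumour by comparing survival of treated (T) against vehicle-dosed (C) groups as T/C.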

[1] = T/C endpoint: mean survival time, dose: 133.0 mg/kg/injection, schedule: Q01DX001 (ip), vehicle: saline with Tween-80
[2] = T/C endpoint: mean survival time, dose: 200.0 mg/kg/injection, schedule: Q01DX001 (ip), vehicle: saline with Tween-80
[3] = T/C endpoint: mean survival time, dose: 600.0 mg/kg/injection, schedule: Q01DX001 (ip), vehicle: carboxymethylcellulose (CMC)
[4] = T/C endpoint: mean survival time, dose: 1200.0 mg/kg/injection, schedule: Q01DX001 (ip), vehicle: carboxymethylcellulose (CMC)

For O=NN(CCCl)C(=O)Nc1ccc(CC(=O)O)cc1, the T/C (T/C endpoint: mean survival time, dose: 20.0 mg/kg/injection, schedule: Q01DX001 (ip), vehicle: carboxymethylcellulose (CMC)) was 138 % of control, the survivor count (T/C endpoint: mean survival time, dose: 40.0 mg/kg/injection, schedule: Q01DX001 (ip), vehicle: carboxymethylcellulose (CMC)) was 4 of 10 and the survivor count (T/C endpoint: mean survival time, dose: 60.0 mg/kg/injection, schedule: Q01DX001 (ip), vehicle: carboxymethylcellulose (CMC)) was 3 of 10. The survivor count (T/C endpoint: mean survival time, dose: 90.0 mg/kg/injection, schedule: Q01DX001 (ip), vehicle: carboxymethylcellulose (CMC)) was 2 of 10.

With OCCOCCN1CCN(CCCN2c3ccccc3Sc3ccc(C(F)(F)F)cc32)CC1 the survivor count (T/C endpoint: mean survival time, dose: 44.0 mg/kg/injection, schedule: Q04DX003 (ip), vehicle: water) was 3 of 8, the survivor count (T/C endpoint: mean survival time, dose: 66.0 mg/kg/injection, schedule: Q04DX003 (ip), vehicle: water) was 3 of 8 and the survivor count (T/C endpoint: mean survival time, dose: 100.0 mg/kg/injection, schedule: Q04DX003 (ip), vehicle: water) was 1 of 8. For the same compound, the survivor count (T/C endpoint: mean survival time, dose: 150.0 mg/kg/injection, schedule: Q04DX003 (ip), vehicle: saline) was 7 of 10 and the survivor count (T/C endpoint: mean survival time, dose: 150.0 mg/kg/injection, schedule: Q04DX003 (ip), vehicle: water) was 3 of 8.

With O=NN(CCCl)C(=O)NC1[C@H](O)CCC[C@@H]1O (stereo partly specified) the T/C (T/C endpoint: mean survival time, dose: 6.0 mg/kg/injection, schedule: Q01DX001 (ip), vehicle: saline) was 137 % of control and the survivor count (T/C endpoint: mean survival time, dose: 33.0 mg/kg/injection, schedule: Q01DX001 (ip), vehicle: saline) was 8 of 10.

With O=NN(CCCl)C(=O)N[C@H]1CCCC[C@H]1O the T/C (T/C endpoint: mean survival time, dose: 12.0 mg/kg/injection, schedule: Q01DX001 (ip), vehicle: saline with Tween-80) was 131 % of control, the survivor count (T/C endpoint: mean survival time, dose: 90.0 mg/kg/injection, schedule: Q01DX001 (ip), vehicle: saline with Tween-80) was 9 of 10 and the survivor count [1] was 10 of 10. For the same compound, the survivor count [2] was 9 of 10.

In the case of O=c1[nH]c(=O)n([C@H]2CCCO2)cc1F, the survivor count (T/C endpoint: median survival time, dose: 108.0 mg/kg/injection, schedule: Q01DX009 (ip), vehicle: water) is reported as 8 of 8, the T/C (T/C endpoint: median survival time, dose: 300.0 mg/kg/injection, schedule: Q04DX003 (ip), vehicle: water) is reported as 125 % of control [6 of 8 alive] and the T/C (T/C endpoint: median survival time, dose: 500.0 mg/kg/injection, schedule: Q04DX003 (ip), vehicle: water) is reported as 138 % of control. The survivor count (T/C endpoint: median survival time, dose: 833.0 mg/kg/injection, schedule: Q04DX003 (ip), vehicle: water) was 7 of 8.

O=NN(CCCl)C(=O)N[C@H]1CCC[C@@H](O)C1 was tested, and the survivor count [1] was 10 of 10 and the survivor count [2] was 6 of 10.

With Cc1ccc(S(=O)(=O)NC(=O)N(CCCl)N=O)cc1 the T/C (T/C endpoint: mean survival time, dose: 93.0 mg/kg/injection, schedule: Q01DX001 (ip), vehicle: other) was 126 % of control [9 of 10 alive].

With CCCOC1=C(N2CC2)C(=O)C(OCCC)=C(N2CC2)C1=O the T/C (T/C endpoint: mean survival time, dose: 8.0 mg/kg/injection, schedule: Q01DX005 (ip), vehicle: saline) was 125 % of control, the T/C (T/C endpoint: mean survival time, dose: 8.0 mg/kg/injection, schedule: Q01DX009 (ip), vehicle: saline) was 135 % of control and the survivor count (T/C endpoint: mean survival time, dose: 16.0 mg/kg/injection, schedule: Q01DX005 (ip), vehicle: saline) was 6 of 6.

In the case of CCOC(=O)C1(NC(=O)N(CCCl)N=O)CCCC1, the T/C (T/C endpoint: mean survival time, dose: 110.0 mg/kg/injection, schedule: Q01DX001 (ip), vehicle: other) is reported as 129 % of control, the T/C (T/C endpoint: mean survival time, dose: 165.0 mg/kg/injection, schedule: Q01DX001 (ip), vehicle: other) is reported as 128 % of control and the T/C (T/C endpoint: mean survival time, dose: 168.0 mg/kg/injection, schedule: Q01DX001 (ip), vehicle: other) is reported as 143 % of control. For the same compound, the survivor count (T/C endpoint: mean survival time, dose: 247.0 mg/kg/injection, schedule: Q01DX001 (ip), vehicle: other) was 5 of 8, the T/C (T/C endpoint: mean survival time, dose: 375.0 mg/kg/injection, schedule: Q01DX001 (ip), vehicle: other) was 129 % of control and the survivor count (T/C endpoint: mean survival time, dose: 555.0 mg/kg/injection, schedule: Q01DX001 (ip), vehicle: other) was 9 of 10.

For C[C@H](N)C(=O)N[C@@H]1[C@H]2C(=C(O)C[C@@H](O)[C@@H]2O)C(=O)O[C@@H]1C, the survivor count (T/C endpoint: mean survival time, dose: 4600.0 mg/kg/injection, schedule: Q01DX001 (ip), vehicle: saline) was 2 of 10.

COC1=C(N2CC2)C(=O)C(OC)=C(N2CC2)C1=O was tested, and the T/C (T/C endpoint: mean survival time, dose: 2.0 mg/kg/injection, schedule: Q01DX009 (ip), vehicle: saline) was 133 % of control and the survivor count (T/C endpoint: mean survival time, dose: 4.0 mg/kg/injection, schedule: Q01DX009 (ip), vehicle: saline) was 5 of 6.

In the case of CN(N=O)C(=O)NCCCCNC(=O)N(C)N=O, the survivor count [3] is reported as 1 of 10, the survivor count (T/C endpoint: mean survival time, dose: 1000.0 mg/kg/injection, schedule: Q01DX001 (ip), vehicle: carboxymethylcellulose (CMC)) is reported as 2 of 10 and the survivor count [4] is reported as 0 of 10. The survivor count (T/C endpoint: mean survival time, dose: 2400.0 mg/kg/injection, schedule: Q01DX001 (ip), vehicle: carboxymethylcellulose (CMC)) was 0 of 10 and the survivor count (T/C endpoint: mean survival time, dose: 4800.0 mg/kg/injection, schedule: Q01DX001 (ip), vehicle: carboxymethylcellulose (CMC)) was 0 of 10.

CC(=O)NC1=C(N2CC2C)C(=O)C(NC(C)=O)=C(N2CC2C)C1=O (stereo unspecified) was tested, and the survivor count (T/C endpoint: mean survival time, dose: 20.0 mg/kg/injection, schedule: Q01DX009 (ip), vehicle: saline) was 5 of 6, the survivor count (T/C endpoint: mean survival time, dose: 40.0 mg/kg/injection, schedule: Q01DX009 (ip), vehicle: saline with Tween-80) was 6 of 6 and the survivor count (T/C endpoint: mean survival time, dose: 40.0 mg/kg/injection, schedule: Q01DX009 (ip), vehicle: saline) was 2 of 6.

CCOC(=O)c1ccc(NC(=O)N(C)N=O)cc1 was tested, and the survivor count [3] was 6 of 10 and the survivor count [4] was 1 of 10.

With O=NN(CCCl)C(=O)NC1CCCC1 the T/C (T/C endpoint: mean survival time, dose: 8.0 mg/kg/injection, schedule: Q01DX001 (ip), vehicle: saline) was 129 % of control, the T/C (T/C endpoint: mean survival time, dose: 9.0 mg/kg/injection, schedule: Q01DX001 (ip), vehicle: saline) was 128 and 137 % of control and the T/C (T/C endpoint: mean survival time, dose: 12.0 mg/kg/injection, schedule: Q01DX001 (ip), vehicle: saline) was 144 % of control. For the same compound, the T/C (T/C endpoint: mean survival time, dose: 12.5 mg/kg/injection, schedule: Q01DX001 (ip), vehicle: saline) was 125 % of control, the T/C (T/C endpoint: mean survival time, dose: 96.0 mg/kg/injection, schedule: Q01DX001 (ip), vehicle: saline) was 146 % of control and the survivor count (T/C endpoint: mean survival time, dose: 145.0 mg/kg/injection, schedule: Q01DX001 (ip), vehicle: saline) was 6 of 6. For the same compound, the survivor count (T/C endpoint: mean survival time, dose: 337.0 mg/kg/injection, schedule: Q01DX001 (ip), vehicle: saline) was 9 of 10, the survivor count (T/C endpoint: mean survival time, dose: 500.0 mg/kg/injection, schedule: Q01DX001 (ip), vehicle: saline) was 10 of 10 and the survivor count (T/C endpoint: mean survival time, dose: 750.0 mg/kg/injection, schedule: Q01DX001 (ip), vehicle: saline) was 5 of 10.

CCn1cnc2c(SC3CCCC3)ncnc21 was tested, and the T/C (T/C endpoint: mean survival time, dose: 15.0 mg/kg/injection, schedule: Q01DX015 (ip), vehicle: carboxymethylcellulose (CMC)) was 125 % of control, the T/C (T/C endpoint: mean survival time, dose: 100.0 mg/kg/injection, schedule: Q01DX009 (ip), vehicle: carboxymethylcellulose (CMC)) was 131 % of control [5 of 6 alive] and the T/C (T/C endpoint: mean survival time, dose: 125.0 mg/kg/injection, schedule: Q01DX Z (ip), vehicle: carboxymethylcellulose (CMC)) was 137 % of control. For the same compound, the T/C (T/C endpoint: mean survival time, dose: 250.0 mg/kg/injection, schedule: Q01DX015 (ip), vehicle: carboxymethylcellulose (CMC)) was 148 % of control, the T/C (T/C endpoint: mean survival time, dose: 500.0 mg/kg/injection, schedule: Q01DX015 (ip), vehicle: carboxymethylcellulose (CMC)) was 145 % of control [8 of 10 alive] and the survivor count (T/C endpoint: mean survival time, dose: 800.0 mg/kg/injection, schedule: Q01DX009 (ip), vehicle: carboxymethylcellulose (CMC)) was 0 of 6.

In the case of CCOCCN1CCN(CCCN2c3ccccc3Sc3ccc(C(F)(F)F)cc32)CC1, the survivor count (T/C endpoint: mean survival time, dose: 3.12 mg/kg/injection, schedule: Q01DX009 (ip), vehicle: water) is reported as 10 of 10, the survivor count (T/C endpoint: mean survival time, dose: 6.25 mg/kg/injection, schedule: Q01DX009 (ip), vehicle: saline) is reported as 1 of 6 and the survivor count (T/C endpoint: mean survival time, dose: 12.5 mg/kg/injection, schedule: Q01DX009 (ip), vehicle: saline) is reported as 0 of 6. For the same compound, the survivor count (T/C endpoint: mean survival time, dose: 25.0 mg/kg/injection, schedule: Q01DX009 (ip), vehicle: saline) was 0 of 6, the survivor count (T/C endpoint: mean survival time, dose: 35.0 mg/kg/injection, schedule: Q04DX003 (ip), vehicle: water) was 2 of 6 and the survivor count (T/C endpoint: mean survival time, dose: 50.0 mg/kg/injection, schedule: Q04DX003 (ip), vehicle: water) was 6 of 6.

With O=NN(CCCl)C(=O)Nc1cccc(C(=O)O)c1 the survivor count (T/C endpoint: mean survival time, dose: 27.0 mg/kg/injection, schedule: Q01DX001 (ip), vehicle: carboxymethylcellulose (CMC)) was 6 of 6.
